The list shows a part of the results.

Chains of the proteins cited; added tags and fusions are not shown.
UniProt Q0JBA9, entry or part of it: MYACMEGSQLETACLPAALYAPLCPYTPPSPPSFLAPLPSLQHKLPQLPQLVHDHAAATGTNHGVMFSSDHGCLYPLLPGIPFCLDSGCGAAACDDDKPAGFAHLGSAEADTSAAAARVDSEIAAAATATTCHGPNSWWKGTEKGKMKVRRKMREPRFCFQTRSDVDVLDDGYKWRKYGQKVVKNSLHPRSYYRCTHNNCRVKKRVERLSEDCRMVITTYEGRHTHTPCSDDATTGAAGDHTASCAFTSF

In this assay the target is OsWRKY34 (Oryza sativa, UniProt Q0JBA9 1-250). Briefly: protein-binding microarray (RPBM); PBS, 2% BSA, 51.3 ng/ul salmon testes DNA, 50 uM zinc acetate, 200 nM TF, 25 C, 1 h; high values mean tight binding. Particulars: protein: recombinant; tags: N-terminal polyhistidine and DsRed monomer fusion (pET32a); label: CyDye5-dUTP incorporated in the synthesized complementary strand; 3' TTTTT single-stranded linker to array surface; dsDNA, one strand shown. The essentials:
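An Axon 4000B scanner gave the binding signal as per-feature fluorescence intensity in arbitrary units. This followed washing of a custom Agilent array that had been incubated for 1 h at 25 °C with 200 nM protein in PBS, 2% BSA, salmon testes DNA and 50 µM zinc acetate. The proteins were transcription factors fused at the N-terminus to polyhistidine and DsRed, expressed in E. coli BL21-CodonPlus and purified on Ni–NTA.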
Turning to “TACTTACACACATCTCTGCGCTCCAATGCATCCCCTAACCCGGAGTCACCTAGTGCAG”, the binding signal is 8820 fluorescence intensity (a.u.).

For “TCTCACGTTTTTCCCACGTCAACCGACCTCGCGTCCGCGTCGGAGTCACCTAGTGCAG”, the binding signal is 10400 fluorescence intensity (a.u.).

Regarding “AAATTTCCTTTCCTTCTTCCCTTGGCCCATCTCTCCCCTCCGGAGTCACCTAGTGCAG”, the binding signal was 9460 fluorescence intensity (a.u.).

Turning to “GTTGGGGATGCGTTTTATCCAGTTTTGTGATCTAGGGACTCGGAGTCACCTAGTGCAG”, the binding signal is 11400 fluorescence intensity (a.u.).

Turning to “AGGTTCACAATCTATCCGACTTTTGATTTTCTTTCAATTCCGGAGTCACCTAGTGCAG”, the binding signal was 9110 fluorescence intensity (a.u.).

On to “GCGGGCCGCCATGCTAGTTATATTTACACACATTTAGAACCGGAGTCACCTAGTGCAG”, for which the binding signal was 9560 fluorescence intensity (a.u.).

“GGGGATCTCTTCTTCTTCCTCGCGGCCGGCGCCGGCCATGCGGAGTCACCTAGTGCAG”: the binding signal was 11800 fluorescence intensity (a.u.).

In the case of “AAAAGCACCACCGCTTGCCGTGTGGCCGTGTCCCGTTTCCCGGAGTCACCTAGTGCAG”, the binding signal was 8310 fluorescence intensity (a.u.).

In the case of “AATGTGACCAAGCCAACTTAACTTATTATACTTCTTAGTTCGGAGTCACCTAGTGCAG”, the binding signal is 8680 fluorescence intensity (a.u.).

With “CCATATCCATCAGTAATAAGCTTTGACCTCTGCGTGCTTTCGGAGTCACCTAGTGCAG”, the binding signal was 8170 fluorescence intensity (a.u.).

In the case of “AGAGACACAATAACTTCTTGCAATTATCCTCTGTGCTGTTCGGAGTCACCTAGTGCAG”, the binding signal was 8990 fluorescence intensity (a.u.).

As to “GATATGCAATGCTGTTGCGGTTGCTGGTTTTCTAAATGCACGGAGTCACCTAGTGCAG”, the binding signal was 9470 fluorescence intensity (a.u.).

“TACGCTGCTACTTCTCGCTCTTCCTCTCGCTGATCCTATTCGGAGTCACCTAGTGCAG”: the binding signal was 8330 fluorescence intensity (a.u.).

“TCAGTCAGATCTCCGTCCGTCCGTCTGTGTCTCTTGGCCGCGGAGTCACCTAGTGCAG”: the binding signal is 10600 fluorescence intensity (a.u.).

Take “CTATCTCGGTGTCTAATTGAGTACATGTTGCTATTTTTTGCGGAGTCACCTAGTGCAG”: the binding signal was 10700 fluorescence intensity (a.u.).

In the case of “CTGTACTGTGCCCTTCTATATTCATGTACTACCTTGTTTCCGGAGTCACCTAGTGCAG”, the binding signal was 10400 fluorescence intensity (a.u.).

With “AGAAACGGAAAACACCCACAGTCCCAGCCACAGCACATTTCGGAGTCACCTAGTGCAG”, the binding signal is 8530 fluorescence intensity (a.u.).

“GTCATTCTAGCATTTCCCAGATTCATTAACATTAATATAACGGAGTCACCTAGTGCAG”: the binding signal is 8050 fluorescence intensity (a.u.).

In the case of “TAGCAACCGTGGATGAAGGTTGCCGCCGTTCTTGTCCGCCCGGAGTCACCTAGTGCAG”, the binding signal is 9100 fluorescence intensity (a.u.).

Consider “ATCACATCTTAACATTTCATTCTCTGCTCAAAGATTCGATCGGAGTCACCTAGTGCAG”, for which the binding signal is 8620 fluorescence intensity (a.u.).

Take “ATCTATTCCCAACTATTATTTCTTTCTTGCCCTTTTATCTCGGAGTCACCTAGTGCAG”: the binding signal is 9370 fluorescence intensity (a.u.).

As for “CTTGCTCGTTGTAACTGTTTAATCTATTATGTTTTTTTTTCGGAGTCACCTAGTGCAG”, the binding signal is 11000 fluorescence intensity (a.u.).

Consider “TGTACTCGTCACGTCATATGCTTCGCACCTGTGCAAGCTGCGGAGTCACCTAGTGCAG”, for which the binding signal was 8160 fluorescence intensity (a.u.).

Regarding “GGTTTGGTTTCAGTCTTTTGTGCAAGTACTAGTACTTGCCCGGAGTCACCTAGTGCAG”, the binding signal was 10500 fluorescence intensity (a.u.).

As to “CACCCTGCTTCTGATTTTTAACTTTTGTTCCTTTTACCAACGGAGTCACCTAGTGCAG”, the binding signal was 8260 fluorescence intensity (a.u.).

With “ATGCCGTGAACATGATCCCTTCCATTAGAGTACTTTGTTTCGGAGTCACCTAGTGCAG”, the binding signal was 9700 fluorescence intensity (a.u.).

For the sequence “GTAATACTCCTTCCGTTTTATATTATAAGTCATTTAGTTTCGGAGTCACCTAGTGCAG”, the binding signal is 10300 fluorescence intensity (a.u.).

“ATAGTTTCGATATCACCTTTGCCTTTTATTTTACCCTTGTCGGAGTCACCTAGTGCAG”: the binding signal is 11800 fluorescence intensity (a.u.).

Consider “TTTCCGTATATTTTGAATTCAGTCCCATCATTTTTTCCTACGGAGTCACCTAGTGCAG”, for which the binding signal is 9940 fluorescence intensity (a.u.).

Regarding “AGCAGGGAGTACAAATTTGACTTTTCAAAAATTCCCCTACCGGAGTCACCTAGTGCAG”, the binding signal was 8120 fluorescence intensity (a.u.).

Turning to “GGTTTTGTGTTATTATGTTTTAAAACATGTGACTTATGAACGGAGTCACCTAGTGCAG”, the binding signal is 8190 fluorescence intensity (a.u.).

Take “TTTATAACTTTTTCATCTATATGCAGTCTCTAAGTTTTTACGGAGTCACCTAGTGCAG”: the binding signal is 8150 fluorescence intensity (a.u.).

For the sequence “TAAGTTGGGGTCATGTTGTATATGGTATTTGGGTTAAAGACGGAGTCACCTAGTGCAG”, the binding signal was 13100 fluorescence intensity (a.u.).

As for “CTCTCGGTCGTCGGCCTCGTCCTCCGGGCCGGCATTCATCCGGAGTCACCTAGTGCAG”, the binding signal was 8560 fluorescence intensity (a.u.).

For the sequence “GCAGCCGATTGGACTCGATCCTATCCTATCCTATCCTATCCGGAGTCACCTAGTGCAG”, the binding signal is 11400 fluorescence intensity (a.u.).

“TTGGATTGGCTGCTTCCCTGTGCTGGTTCAGTGATCCCTGCGGAGTCACCTAGTGCAG”: the binding signal was 8150 fluorescence intensity (a.u.).

In the case of “TCAGTCCTCCACATGACCCCACCTGTCATCCACATCACCGCGGAGTCACCTAGTGCAG”, the binding signal was 8310 fluorescence intensity (a.u.).

With “CCCATCTCGCTAGCCGCCGCCGGCCACAACCATTCCTCACCGGAGTCACCTAGTGCAG”, the binding signal is 9570 fluorescence intensity (a.u.).

Regarding “CGGTGGTTTCGTGGGCTTTTTGCACTGTGGCGATAGAGGACGGAGTCACCTAGTGCAG”, the binding signal is 8160 fluorescence intensity (a.u.).

“GGGCGGTGCATTGGAGACGATAGGGGTGTAGGTCGTGTTCCGGAGTCACCTAGTGCAG”: the binding signal is 8600 fluorescence intensity (a.u.).

As to “CAGGCGCTCGCGGTCGGGGTCGGGGAGGAGGGAGAATCTCCGGAGTCACCTAGTGCAG”, the binding signal is 9860 fluorescence intensity (a.u.).

As to “GTTTCTTTTTTATTATTATTTTTCCAGCGAGCGACCTCTCCGGAGTCACCTAGTGCAG”, the binding signal was 9010 fluorescence intensity (a.u.).

These data come from article PMC7819943, “Rice protein-binding microarrays: a tool to detect cis-acting elements near promoter regions in rice”.
